From PMC9630536
No constants are given. Whether binding was seen depends on the method and setting. Binding seen in cells or lysates may run through a third protein. Some entries that bind do so weakly or less than the wild type. Tags and fused reporters may be left off the sequences shown.

T1: GFP-tagged 17β-hydroxysteroid dehydrogenase 13 wild type (human) (UniProt Q7Z5P4)
T1 sequence: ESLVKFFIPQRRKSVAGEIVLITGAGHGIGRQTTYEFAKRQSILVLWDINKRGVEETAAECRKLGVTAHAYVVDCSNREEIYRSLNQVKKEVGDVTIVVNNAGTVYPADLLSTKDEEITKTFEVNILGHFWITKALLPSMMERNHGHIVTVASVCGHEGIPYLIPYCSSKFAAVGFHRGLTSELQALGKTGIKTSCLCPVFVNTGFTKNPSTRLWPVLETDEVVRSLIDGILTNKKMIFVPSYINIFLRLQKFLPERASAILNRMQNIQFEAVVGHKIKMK

T2: myc-tagged 17β-hydroxysteroid dehydrogenase 13 wild type (UniProt Q7Z5P4)
T2 sequence: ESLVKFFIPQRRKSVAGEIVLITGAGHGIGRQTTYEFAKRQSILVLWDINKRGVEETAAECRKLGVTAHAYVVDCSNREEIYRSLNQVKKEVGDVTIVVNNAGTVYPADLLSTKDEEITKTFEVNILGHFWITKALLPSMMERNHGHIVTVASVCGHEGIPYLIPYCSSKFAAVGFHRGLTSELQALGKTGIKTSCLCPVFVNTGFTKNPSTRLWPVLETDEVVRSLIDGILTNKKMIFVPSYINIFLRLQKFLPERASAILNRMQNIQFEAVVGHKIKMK

T3: GFP-tagged 17β-hydroxysteroid dehydrogenase 13 S33A mutant (human) (UniProt Q7Z5P4)
T3 sequence: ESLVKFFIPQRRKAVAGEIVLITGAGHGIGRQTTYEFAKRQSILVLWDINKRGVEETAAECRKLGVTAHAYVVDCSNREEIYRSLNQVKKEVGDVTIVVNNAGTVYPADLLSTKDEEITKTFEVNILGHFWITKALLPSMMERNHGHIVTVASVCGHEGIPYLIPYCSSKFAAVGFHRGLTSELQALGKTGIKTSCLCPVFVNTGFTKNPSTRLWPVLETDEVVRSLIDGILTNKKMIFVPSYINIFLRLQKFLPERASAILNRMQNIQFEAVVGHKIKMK

T4: GST-17β-HSD13 (UniProt Q7Z5P4)
T4 sequence: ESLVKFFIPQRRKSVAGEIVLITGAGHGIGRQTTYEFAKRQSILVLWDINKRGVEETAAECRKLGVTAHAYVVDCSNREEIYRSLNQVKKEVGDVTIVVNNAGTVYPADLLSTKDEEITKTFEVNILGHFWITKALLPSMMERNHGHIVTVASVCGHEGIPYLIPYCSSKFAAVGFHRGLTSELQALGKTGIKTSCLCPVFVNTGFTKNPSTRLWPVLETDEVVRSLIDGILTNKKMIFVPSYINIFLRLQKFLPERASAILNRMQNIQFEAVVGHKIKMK

T5: Flag-CGI-58, Q8WTS1
T5 chain: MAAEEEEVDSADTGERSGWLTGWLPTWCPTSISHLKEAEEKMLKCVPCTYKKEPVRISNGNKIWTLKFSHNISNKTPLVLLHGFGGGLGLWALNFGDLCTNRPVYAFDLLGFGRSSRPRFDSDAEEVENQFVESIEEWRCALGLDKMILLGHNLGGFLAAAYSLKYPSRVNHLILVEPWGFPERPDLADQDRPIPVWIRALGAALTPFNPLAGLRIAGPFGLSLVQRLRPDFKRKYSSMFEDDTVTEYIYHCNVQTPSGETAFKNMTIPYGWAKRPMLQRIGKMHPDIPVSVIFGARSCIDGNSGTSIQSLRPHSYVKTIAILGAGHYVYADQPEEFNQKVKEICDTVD


Key:
[1] = target: T1, GFP-tagged 17β-hydroxysteroid dehydrogenase 13 wild type (human); assay: co-IP; 293T cells transfected with GFP- or myc-tagged 17β-HSD13 (WT or S33A) and mCherry-ATGL; lysates incubated with the indicated beads (anti-GFP beads in Fig. 5b) for 1 h; washed 5 times with buffer containing 250 mM NaCl; immunoblot
[2] = target: T2, myc-tagged 17β-hydroxysteroid dehydrogenase 13 wild type; assay: as above
[3] = target: T3, GFP-tagged 17β-hydroxysteroid dehydrogenase 13 S33A mutant (human); assay: as above
GST-17β-HSD13 = target: T4, GST-17β-HSD13; assay: pull-down; Glutathione-Sepharose beads precoated with 1 μg GST-17β-HSD13 or GST, incubated with lysates of 293T cells overexpressing mCherry-ATGL (1 μg); western blot; only the target purified
Flag-CGI-58, Q8WTS1 = target: T5, Flag-CGI-58, Q8WTS1; assay: co-IP; 293T cells co-transfected with Flag-CGI-58, MC-ATGL and GFP, GFP-17β-HSD13 or GFP-17β-HSD13 S33A, with or without forskolin for 30 min; lysates immunoprecipitated with anti-flag beads; ATGL detected with anti-mCherry antibody; settings: remark: other sources report otherwise

binding [1] | binding [2] | binding [3] | binding (GST-17β-HSD13) | binding (Flag-CGI-58, Q8WTS1) | Binder
binds | binds | binds | binds |  | mCherry-tagged adipose triglyceride lipase (protein, UniProt Q96AD5 1-504) MFPREKTWNISFAGCGFLGVYYVGVASCLREHAPFLVANATHIYGASAGALTATALVTGVCLGEAGAKFIEVSKEARKRFLGPLHPSFNLVKIIRSFLLKVLPADSHEHASGRLGISLTRVSDGENVIISHFNSKDELIQANVCSGFIPVYCGLIPPSLQGVRYVDGGISDNLPLYELKNTITVSPFSGESDICPQDSSTNIHELRVTNTSIQFNLRNLYRLSKALFPPEPLVLREMCKQGYRDGLRFLQRNGLLNRPNPLLALPPARPHGPEDKDQAVESAQAEDYSQLPGEDHILEHLPARLNEALLEACVEPTDLLTTLSNMLPVRLATAMMVPYTLPLESALSFTIRLLEWLPDVPEDIRWMKEQTGSICQYLVMRAKRKLGRHLPSRLPEQVELRRVQSLPSVPLSCAAYREALPGWMRNNLSLGDALAKWEECQRQLLLGLFCTNVAFPPEALRMRAPADPAPAPADPASPQHQLAGPAPLLSTPAPEARPVIGALGL
 |  |  |  | binds | mCherry-tagged adipose triglyceride lipase, Q96AD5 1-504 (protein) MFPREKTWNISFAGCGFLGVYYVGVASCLREHAPFLVANATHIYGASAGALTATALVTGVCLGEAGAKFIEVSKEARKRFLGPLHPSFNLVKIIRSFLLKVLPADSHEHASGRLGISLTRVSDGENVIISHFNSKDELIQANVCSGFIPVYCGLIPPSLQGVRYVDGGISDNLPLYELKNTITVSPFSGESDICPQDSSTNIHELRVTNTSIQFNLRNLYRLSKALFPPEPLVLREMCKQGYRDGLRFLQRNGLLNRPNPLLALPPARPHGPEDKDQAVESAQAEDYSQLPGEDHILEHLPARLNEALLEACVEPTDLLTTLSNMLPVRLATAMMVPYTLPLESALSFTIRLLEWLPDVPEDIRWMKEQTGSICQYLVMRAKRKLGRHLPSRLPEQVELRRVQSLPSVPLSCAAYREALPGWMRNNLSLGDALAKWEECQRQLLLGLFCTNVAFPPEALRMRAPADPAPAPADPASPQHQLAGPAPLLSTPAPEARPVIGALGL
